Measured values from PubChem BioAssay AID2685 (National Center for Advancing Translational Sciences (NCATS), 2010).
The other results are listed elsewhere or left out. Further columns of the screen follow, without active or inactive calls. Most of these compounds were active or inconclusive in the main read-out, so they are no random draw. The note in brackets gives the kind of curve behind each potency; many fits are weak.

Assay: qHTS Assay for Lipid Storage Modulators in Drosophila S3 Cells;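 on cell number change: cells counted by Cell Tracker Red CMTPX staining in the red channel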
Settings: BODIPY lipid droplet fluorescence, 18-24 h; for cell number change: measured here: cell count max response, cells fed with added oleic acid
Method in brief: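 Drosophila S3 cells got compounds at several concentrations plus oleic acid (400 uM solution). Laser-scanning cytometry with 488 nm excitation read lipid droplets at 500-530 nm and cells at 575-640 nm. Percent activity was relative to 20 uM Triacsin C.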

[1] = measured here: lipid fluorescence (Fed channel) AC50, cells fed with added oleic acid
[2] = measured here: cell number channel AC50, cells fed with added oleic acid

Row | Compound | cell number change [%] | AC50 [1] | AC50 [2]
1 | Cc1ccc(Cl)cc1N(CC(=O)N1CCOCC1)S(C)(=O)=O | 28.5 | 29.1 µM [rising, single point] | 
2 | CCOc1ccccc1NC(=O)CN1C(=O)C(C)SC(C)C1=O (stereo not given) | 1.82 |  | 
3 | O=C(NC1CCCCC1)N1CCN(c2ccccc2Cl)CC1 | -8.91 | 29.1 µM [falling, single point] | 
4 | O=C(CN(C(=O)Cn1nnc(-c2cccs2)n1)c1ccc2c(c1)OCCO2)NCC1CCCO1 (stereo not given) | -25.2 | 29.1 µM [rising, single point] | 3.66 µM [falling, full curve, poor fit]
5 | O=C(Nc1ccccc1)c1cc2ccccc2[nH]1 | 17.2 | 16.4 µM [rising, single point] | 
6 | CC1CN(Cc2cc(=O)[nH]c(C(C)C)n2)CC(C)O1 (stereo not given) | -7.46 | 0.116 µM [falling, full curve, poor fit] | 
7 | CCC(=O)N(C)CCc1cc2c(c(OC)c1/C=N/NC(=O)c1ccccc1O)OCO2 |  | 0.0206 µM [rising, full curve, poor fit] | 6.51 µM [rising, partial curve]
8 | Cc1ccc(-c2cc(C(F)(F)F)nc(SCC(=O)c3cccc([N+](=O)[O-])c3)n2)cc1 | 17.8 | 8.2 µM [rising, partial curve] | 
9 | c1ccc(Cn2nnc3c(NCC4CCCO4)nc(C4CC4)nc32)cc1 (stereo not given) | 93.3 | 29.1 µM [rising, single point] | 8.2 µM [rising, partial curve]
10 | CCN(C(=O)CSc1nnc(-c2ccco2)n1Cc1ccccc1)C1CCS(=O)(=O)C1 (stereo not given) | -8.65 | 14.6 µM [falling, single point] | 
11 | CCOc1ccc(-c2nnn(CC(=O)NCCc3c[nH]c4ccccc34)n2)cc1 | 1.43 | 2.31 µM [rising, partial curve] | 1.64 µM [rising, partial curve]
12 | Cc1ccc(C(=O)c2c3ccc([N+](=O)[O-])cc3[n+]([O-])n2CCCN)cc1 | -2.9 |  | 
13 | O=C1CC(c2ccco2)CC(O)=C1C=Nc1cc(Cl)ccc1O (stereo not given) | -0.271 | 0.092 µM [falling, full curve, poor fit] | 
14 | N#CCc1ccc(C(=O)c2ccccc2)s1 | 72.4 | 5.8 µM [rising, full curve] | 23.1 µM [rising, partial curve, poor fit]
15 | COc1ccc(Br)c(C(=O)OCc2cc(=O)oc3cc(C)ccc23)c1 | 14.1 | 16.4 µM [falling, partial curve] | 
16 | NC(=O)c1ccc(-n2nnnc2SCC(=O)Nc2ccc(N3CCOCC3)c(Cl)c2)cc1 |  | 0.13 µM [falling, full curve, poor fit] | 
17 | COc1ccc(C(=O)CCN2CCCCCC2)cc1 | -33.4 | 32.6 µM [falling, partial curve] | 32.6 µM [falling, single point]
18 | Cc1cc(F)ccc1S(=O)(=O)Nc1ccccc1C(=O)N1CCCC1 | -3.24 | 20.6 µM [rising, partial curve] | 
19 | CN(C(=O)CSc1ncnc2sc3c(c12)CCC3)C1CCS(=O)(=O)C1 (stereo not given) | -14 | 0.82 µM [falling, single point] | 
20 | Cc1cc2[nH]c(=O)c(=O)[nH]c2cc1S(=O)(=O)N1CCC(C)CC1 | 3.75 | 2.59 µM [falling, partial curve, poor fit] | 0.461 µM [rising, single point]
21 | Cc1nc(C)c(C(=O)O)c(-c2ccsc2)c1C(=O)O | -35.5 | 3.66 µM [falling, single point] | 4.61 µM [falling, partial curve, poor fit]
22 | Cc1c(NC(C)C)c(=O)n(-c2ccccc2)n1C | -29.6 | 5.8 µM [falling, full curve] | 1.46 µM [falling, full curve, poor fit]
23 | Oc1ccc(N2Cc3ccccc3C2)cc1 | -2.59 | 0.103 µM [rising, full curve, poor fit] | 
24 | COc1ccc2ccccc2c1C1CC(=O)N2CN(C3CCCCC3)CSC2=C1C#N (stereo not given) | 39.9 | 6.51 µM [rising, single point] | 6.51 µM [rising, single point]
25 | CC1(C)NC(=O)N(CCCCSc2ccc(Cl)cc2)C1=O | -32.2 | 23.1 µM [falling, single point] | 20.6 µM [falling, single point]
26 | COc1ccc(OC)c(NC(=S)NN2CCN(C)CC2)c1 | 48.2 | 18.4 µM [rising, single point] | 20.6 µM [rising, single point]
27 | COc1cc(C)c(CN2CCC(Cc3ccccc3)CC2)cc1C | -17.7 | 29.1 µM [falling, single point] | 

A section from the list above, for reference:
Row | Compound | cell number change [%] | AC50 [1] | AC50 [2]
19 | CN(C(=O)CSc1ncnc2sc3c(c12)CCC3)C1CCS(=O)(=O)C1 (stereo not given) | -14 | 0.82 µM [falling, single point] | 
20 | Cc1cc2[nH]c(=O)c(=O)[nH]c2cc1S(=O)(=O)N1CCC(C)CC1 | 3.75 | 2.59 µM [falling, partial curve, poor fit] | 0.461 µM [rising, single point]
21 | Cc1nc(C)c(C(=O)O)c(-c2ccsc2)c1C(=O)O | -35.5 | 3.66 µM [falling, single point] | 4.61 µM [falling, partial curve, poor fit]
22 | Cc1c(NC(C)C)c(=O)n(-c2ccccc2)n1C | -29.6 | 5.8 µM [falling, full curve] | 1.46 µM [falling, full curve, poor fit]

Later entries:

Row | Compound | cell number change [%] | AC50 [1] | AC50 [2]
28 | CCOc1ccc(Nc2ncnc3c2cnn3C)cc1 | -14.6 |  | 
29 | CCc1nc(C)cn1S(=O)(=O)c1cc([N+](=O)[O-])ccc1Cl | 0.118 |  | 4.11 µM [falling, single point]
30 | [O-][n+]1c2ccccc2c2n1CCN=C2c1ccc(Cl)cc1 | 20.9 | 4.11 µM [rising, partial curve] | 
31 | COC(=O)c1ccc(COc2ncnc3sccc23)cc1 |  |  | 0.103 µM [rising, full curve, poor fit]
32 | CO/N=C/NC(=O)C1=NOC(CNc2ncc(C(F)(F)F)cc2Cl)C1 (stereo not given) |  | 0.0103 µM [falling, full curve, poor fit] | 0.13 µM [falling, full curve, poor fit]
33 | Cc1[nH]c2ccc(F)cc2c(=O)c1SC(F)(F)C(F)C(F)(F)F (stereo not given) |  | 0.411 µM [rising, full curve] | 1.3 µM [rising, full curve]
34 | COc1ccc(-c2cnnc(N/N=C/c3ccc(O)c(O)c3)n2)cc1 | -18.4 | 29.1 µM [falling, single point] | 
35 | O=C(NCc1ccccc1)C1CCCN(C(=O)c2ccc(F)cc2)C1 (stereo not given) | -85.2 | 1.64 µM [falling, partial curve] | 25.9 µM [falling, partial curve]
36 | Cn1c(SCC(=O)N/N=C/c2ccc([N+](=O)[O-])s2)nnc1-c1ccccc1 | -43 |  | 14.6 µM [falling, partial curve, poor fit]
37 | CCN1C(=O)[C@H]2[C@@H](c3ccc(-c4ccc(Cl)c(Cl)c4)cc3)N[C@@](Cc3ccccc3)(C(=O)OC)[C@H]2C1=O | 15.6 | 0.651 µM [rising, single point] | 
38 | Cc1ccc(Cc2c(C)nc3nc(SCC(=O)NCc4ccco4)nn3c2C)cc1 | 27.4 | 16.4 µM [rising, single point] | 
39 | Cc1onc(-c2ccccc2Cl)c1C(=O)Nc1ccc(-n2nncc2C(C)(C)C)cc1 |  | 6.51 µM [rising, single point] | 
40 | Cc1cccc(OCCCC(=O)NCCc2ccccc2)c1 | 2.35 | 16.4 µM [rising, single point] | 
41 | CCN(Cc1ccccc1)S(=O)(=O)c1ccc(S(=O)(=O)N(Cc2cccc(OC)c2)CC2CCCO2)cc1 (stereo not given) |  |  | 1.3 µM [rising, partial curve, poor fit]
42 | O=C(O)C1CCCCC1C(=O)Nc1ccc(F)c(F)c1 (stereo not given) | 107 | 0.58 µM [falling, partial curve, poor fit] | 20.6 µM [rising, single point]
43 | CN1CCN(C(=O)c2cccc(NS(=O)(=O)c3ccc(Br)cc3)c2)CC1 | 17.1 | 0.103 µM [rising, full curve, poor fit] | 
44 | Cc1ccnc(NC(=O)c2cccc(S(=O)(=O)N3CCCC3)c2)c1 | -6.45 |  | 
45 | CCCCN(CCCC)Cc1ccc(N)cc1 | 2.7 |  | 
46 | CN(C)C=NC(=O)c1cc(C(=O)c2ccc(Cl)cc2)c[nH]1 | 8.92 | 29.1 µM [rising, single point] | 
47 | CC1(C)CC(=O)C(C=NCCO)=C(O)C1 | -38 | 7.31 µM [falling, partial curve] | 4.61 µM [falling, full curve]
48 | COc1cc(C2/C(=C(\O)c3ccc4c(c3)CC(C)O4)C(=O)C(=O)N2Cc2ccco2)ccc1O (stereo not given) | -4.68 | 0.103 µM [falling, full curve, poor fit] | 
49 | Cc1ccc(-c2nc(Nc3cccc(O)c3)c3ccccc3n2)cc1 | -44.8 | 29.1 µM [falling, single point] | 29.1 µM [falling, single point]
50 | O=C1NC(c2ccc(-c3ccccc3[N+](=O)[O-])o2)C(C(=O)c2ccc(Cl)cc2)C(O)(C(F)(F)F)N1 (stereo not given) | -57 | 14.6 µM [falling, partial curve] | 13 µM [falling, partial curve]
51 | CCc1ccccc1NC(=O)C1CC(c2ccc(F)cc2)=NO1 (stereo not given) | 3.47 | 0.058 µM [rising, full curve] | 
52 | Cc1ccc2cccc(S(=O)(=O)Nc3ccc4c(c3)OCO4)c2n1 | -14 | 1.3 µM [rising, full curve] | 
53 | CCC(=O)N1CCN(c2ccc(NC(=O)c3ccc(N4CCCC4)c([N+](=O)[O-])c3)cc2)CC1 | -22.6 | 1.84 µM [falling, partial curve, poor fit] | 
54 | COc1cc(C2C(C#N)=C(C)NC3=C2C(=O)CC(C)(C)C3)cc(OC)c1O (stereo not given) | 10.6 | 2.06 µM [rising, full curve, poor fit] | 
